Test results: patent US20040171696A1, “Pharmaceutical composition for the treatment of the decline and/or damage of cognitive functions” (priority 2001, published 2004)
“Also recorded” adds a separate entry of the source.

Test system: Male Wistar rats
Assay: step through passive avoidance learning
Type: in vivo, rat
Conditions: 5 mg/kg ip on Day 1; FIG. 2
Experimental: Male Wistar rats weighing 200-220 g were used. The animals were obtained from Charles River Co. They were kept in a room with normal 12-12 h light dark cycle (light on: 06:00) at a relative humidity of 60±10%.
The experiment was performed in a five-channel “step through”-type passive avoidance learning apparatus. The equipment consisted of two adjacent Plexi-glass boxes of 20×20×16 cm. One of them was made of regular transparent Plexi-glass and the other one was made of black, non-transparent Plexi-glass. The boxes were connected with a 7.5×8 cm passage way, equipped with a computer-controlled guillotine-door. The passage of the rats through the door was detected by infrared photocells arranged in two parallel lines in the opening of the passage way. The door was automatically closed when the animals passed through. The dark compartment was equipped with stainless steel grid floor through which electric foot shocks could be delivered to the animals. […]
The individually numbered animals were placed into the light compartment of the equipment. […] Step through latency was automatically determined. […]
After 24 h the animals were placed again in the light compartment of the test apparatus and step-through latency was measured as described at Acquisition day, except that no foot shock was applied to the animals in any group on the second day. […]

For CN1C(=O)CN=C(c2ccccc2)c2cc(Cl)ccc21 [diazepam, reference compound], the “retention from long term memory” value was “deleterious effect; also recorded: significantly damaged”.
